Laboratory results from paper PMC4686761.
No constants are given. Whether binding was seen depends on the method and setting. In cells and extracts the contact can be indirect. Some entries that bind do so weakly or less than the wild type.

By UniProt entry, the sequences of proteins in these tests, tags left out.
UniProt P60484: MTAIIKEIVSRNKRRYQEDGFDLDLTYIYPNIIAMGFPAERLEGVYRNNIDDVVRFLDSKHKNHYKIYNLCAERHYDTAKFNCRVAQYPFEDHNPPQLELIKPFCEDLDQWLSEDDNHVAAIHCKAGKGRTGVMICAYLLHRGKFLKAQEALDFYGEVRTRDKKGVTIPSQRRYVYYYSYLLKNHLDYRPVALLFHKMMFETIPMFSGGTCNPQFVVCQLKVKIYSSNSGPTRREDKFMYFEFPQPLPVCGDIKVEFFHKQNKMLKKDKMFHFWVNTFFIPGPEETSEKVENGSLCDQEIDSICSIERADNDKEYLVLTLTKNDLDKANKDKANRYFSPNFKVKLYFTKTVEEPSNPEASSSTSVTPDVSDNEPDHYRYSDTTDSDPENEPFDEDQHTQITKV
UniProt P16220: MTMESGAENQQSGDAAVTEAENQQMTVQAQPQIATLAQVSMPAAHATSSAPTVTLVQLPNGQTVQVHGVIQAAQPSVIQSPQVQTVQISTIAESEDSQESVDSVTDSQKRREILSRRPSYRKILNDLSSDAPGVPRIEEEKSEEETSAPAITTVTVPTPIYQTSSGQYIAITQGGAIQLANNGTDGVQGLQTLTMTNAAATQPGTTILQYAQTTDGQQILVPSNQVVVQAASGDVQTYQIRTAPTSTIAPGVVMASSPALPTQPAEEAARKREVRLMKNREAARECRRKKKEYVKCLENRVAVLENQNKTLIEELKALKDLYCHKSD

Biological target: Phosphatase and tensin homolog (PTEN) (human) (UniProt P60484)
Experiment: co-IP; about 1 x 10^7 cells lysed in NP40 lysis buffer (50 mM Tris-HCl pH 8.0, 1% NP-40, 150 mM NaCl, 2 mM EDTA); lysates incubated with anti-Flag agarose overnight at 4 °C; three washes; western blotting; Flag-tagged bait and cell type not stated

Question: Which binding does the source give for “cAMP responsive element binding protein 1 (CREB) (from UniProt P16220 1-327)” here?
Answer: binds
